Library screening results

The values are deposited in ChEMBL (CHEMBL3988442, “University of Dundee, Small-Polar-MMV Screening Library” (2021)).

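Whole-cell assay for inhibitors of Mycobacterium tuberculosis growth, labelled Cornell in the record; the read-out is not stated. The concentration is filed as 10 mM, unlikely as a test dose, so the dose is not known. Higher means stronger inhibition (inferred from two other growth screens of the library). Of about 53,000 compounds tested this way, about 900 (1.7%) reached 50% or more in at least one test.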

Each number is a percent effect as filed.
The record does not define 0% and 100%; most values in the screen are far below 50% and negative numbers occur (in some assays of this library far below -100).
Compounds were drawn at random from those tested, without regard to their results.

structure | percent effect
CC(=O)NCC1CN(c2ccc3c(Cl)ccnc3c2F)CCO1 (centres unmarked) | 21.45
CNC(=O)CN1CCOCC12CCN(C(=O)c1ccccc1)CC2.O=C(O)C(F)(F)F | -12.06
CS(=O)(=O)C1CCN(S(=O)(=O)Cc2cccc(F)c2)CC1 | 1.516
Cc1nc(COCc2cnc3n2CCN(C)C3C)cs1.O=C(O)C(F)(F)F (centres unmarked) | 10.97
Cc1cccc(CN2CCC3(CCCN(C(=O)CN(C)C)C3)C2=O)n1 (centres unmarked) | 9.226
O=C(c1ccc(=O)[nH]c1)N1CCC(Oc2cccc(C(F)(F)F)c2)CC1 | 12.85
O=C1CCC(=O)N1CCn1nnc(-c2cccc(Cl)c2)n1 | -7.781
O=C(O)C(F)(F)F.O=C(O)C(F)(F)F.[H][C@@]12CCN(Cc3ccsc3)C[C@]1([H])[C@@H](CN(C)Cc1ccco1)OC2 | 9.119
COCc1cncc2c1CCN(C(=O)c1cccc(C#N)c1)C2.O=C(O)C(F)(F)F | 1.674
CCS(=O)(=O)N1CCC2(CCCN(Cc3cc(OC)ccc3F)C2)C1 (centres unmarked) | 13.87
CC(C(=O)N1CCCC1)N1CCC(c2nccn2Cc2cscn2)CC1 (centres unmarked) | 19.09
Cc1oc(-c2cccc(F)c2)nc1CN1CCOCS1(=O)=O | 14.16
O=C(c1ccc2c(c1)OCCCO2)N1CCCCC1C1OCCO1 (centres unmarked) | -14.07
[H][C@]12CC[C@]([H])(CN(C(=O)c3ccccc3)C1)N(C(=O)CN1CCOCC1)C2 | 23.72
CN(C)CCOCc1cncc2c1CCN(C1CCOC1)C2.O=C(O)C(F)(F)F.O=C(O)C(F)(F)F.O=C(O)C(F)(F)F (centres unmarked) | 24.96
Cc1cc2[nH]c(CN3CCOC(c4ccc(Cl)cc4)C3)cc(=O)n2n1 (centres unmarked) | 42.77
O=C(Cc1ccsc1)N1CCC(c2n[nH]c3nccnc23)CC1 | 19.98
COc1ccc2nc(CNC(=O)c3cc(C(C)C)no3)[nH]c2c1 | 34.49
c1nc2n(c1CN1CCOCC1)CCN(C1CCOC1)CC2 (centres unmarked) | -5.892
Cc1ccc(N2CCCC3(CCN(C(=O)NC4CCCC4)C3)C2)nn1 (centres unmarked) | -3.802
CCc1cc(=O)[nH]c2nnc(SCC(=O)NC)n12 | -12.16
CCN(CC)CCn1cnc(-c2ccccc2)c1-c1ncc[nH]1 | 11.93
CN(C)Cc1nnc2n1CCN(c1cnccn1)CC2.O=C(O)C(F)(F)F | 15.01
Cc1noc(C2CN(Cc3ccc4c(c3)CCO4)C2)n1.O=C(O)C(=O)O | -3.195
CC(C)NC(=O)CN(C)C1CCN(c2cnc3ccccc3n2)CC1 | -12.21
COc1ccc(-c2n[nH]c(C)c2CC(=O)N2CCOCC2)cc1 | 26.46
CO[C@@H]1CN(C)S(=O)(=O)[C@@]12CCN(Cc1ccccc1)C2 | 9.469
COc1cc(CO)c(OC)c2c1OCO2 | -18.14
CCN(C(=O)NCCc1ccccc1Cl)C(C)CS(C)(=O)=O (centres unmarked) | -23.35
O=C(NCC1CCCO1)c1nc2c(s1)CCCN2CC1CC1 (centres unmarked) | 17.15
O=S(=O)(CCCN1CCCC1Cn1cccn1)c1ccccc1 (centres unmarked) | 27.93
c1coc(-c2nnc(CN3CCOC(Cn4cccn4)C3)o2)c1 (centres unmarked) | 24.44
CCOC(C)c1nc(Cn2cc(C)cn2)cs1 (centres unmarked) | 25.14
CN(Cc1ccnc2ccccc12)C1CCS(=O)(=O)C1.O=C(O)CC(O)(CC(=O)O)C(=O)O (centres unmarked) | -7.907
CC(=O)N1CCC2(CC1)c1ncc(-c3cccnc3)n1CCN2C | -2.827
N#CCc1ccc(OCC(=O)NS(=O)(=O)c2ccc(Cl)s2)cc1 | 0.2572
N#Cc1cccc(N2CCCC3(C2)CN(c2ncc(F)cn2)CCO3)n1.O=C(O)C(F)(F)F (centres unmarked) | 36.67
CC(C)c1nccc(CN(C)Cc2cccc(-n3cccn3)c2)n1 | 19.92
Cc1cnc(C(NC(=O)NCc2nc(C3CC3)no2)C2CC2)s1 (centres unmarked) | -34.55
COC(=O)c1cccc2nc([C@H]3CCN(Cc4ccccc4C)C3)oc12 | 15.72
O=S(=O)(NCc1ccc(S(=O)(=O)N2CCCC2)s1)c1cc(Cl)cc(Cl)c1 | -7.118
Cc1cnn(C2CN(c3nc(C)cc(N(C)C)n3)C2)c1 | 16.98
CCCc1cc(C(=O)N[C@@H]2CC[C@@H](N3CCOCC3)[C@@H]2O)no1 | 12.36
CC(Cn1cncn1)NCc1csc2c1CCCC2 (centres unmarked) | 6.492
Cl.Cl.FC(F)(F)c1cccc(-c2c[nH]c(C3CCCN3)n2)c1 (centres unmarked) | 16.3
COc1ccccc1C(=O)Nc1nc2c(s1)CN(S(=O)(=O)C1CC1)CC2 | 31.59
Cc1cccnc1CCNCC1(O)CCCN(CC2CCCCC2)C1=O (centres unmarked) | -24.48
[H][C@@]12COC[C@]1([H])[C@H](NC(=O)C1CCC1)CN2Cc1cccc(C)n1 | -34.41
COc1cccc(CN2CC[C@H](NC(C)=O)[C@@H](O)CC2)c1F | -15.13
Cc1c(C2CCCN(C(=O)c3ccn(C)n3)C2)n2c(nc1=O)CCC2 (centres unmarked) | -24.87
CN(Cc1n[nH]c2c1CCCC2)c1cc(N2CCOCC2)nc(N)n1 | 32.57
Cn1cc(CN2CCCC3(COCCN(Cc4c[nH]nn4)C3)C2)cn1.O=C(O)C(F)(F)F.O=C(O)C(F)(F)F (centres unmarked) | 3.196
CC(C)N1CCc2c(c(COc3cccnc3)nn2CC2CC2)C1.O=C(O)C(F)(F)F.O=C(O)C(F)(F)F.O=C(O)C(F)(F)F | 7.188
CN(CCCc1ccccc1)C(=O)CCc1nc(-c2nnc[nH]2)no1 | 12.73
Cc1cc(=O)n(C)cc1NC(=O)Cc1cccc(F)c1 | 21.57
CC(CNC(=O)N1CCN(c2cnccn2)CC1)Cc1cccs1 (centres unmarked) | 15.71
CS(=O)(=O)N1CCCC12CCCN(C(=O)c1ccc3c(c1)OCO3)C2 (centres unmarked) | 9.544
Cc1[nH]ncc1C(=O)NCC(CO)Cc1ccc(Cl)cc1 (centres unmarked) | 43.4
CC(C)NC(=O)CN(C)C1CCN(c2ccc(Cl)cn2)CC1 | 11.77
Cc1ccc(C(=O)NCC(O)c2ccc(F)c(F)c2)c(=O)[nH]1 (centres unmarked) | 15.01
CCOCCCNC(=O)c1cn(C(C)(C)C)c2ncccc12 | -35.43
COc1ccc(C2(NC(=O)C3CC(=O)N(C)C3)CCCC2)cc1 (centres unmarked) | 17.28
CN1CCN(c2nccc(-c3cncnc3C3CCCCC3)n2)CC1 | -94.87
CN1CCN(S(=O)(=O)c2cccc(F)c2)c2ccccc21 | 43.47
Cc1cnc(C(=O)N2CCOCC2c2ccccc2)cn1 (centres unmarked) | 3.05
Cc1cccc(CNC(=O)CNc2cc(CO)ccc2Cl)c1 | -1.559
CCCN1CCC(NC(=O)c2csc(C)c2-c2ccccc2)CC1 | 14.34
COC(=O)CNC(=O)c1cc(-c2ccccc2)nc2ncnn12 | -4.045
Cc1nc(C)n(C2CCCN(C(=O)CCn3cncn3)C2)n1 (centres unmarked) | 3.145
Cc1nnc(CN(C)C2CCN(CCc3cccs3)C2)n1C (centres unmarked) | 0.9065
Cc1c(C)c(C)c2[nH]c(-c3cn(C4CCNCC4)nn3)nc2c1C | -15.55
CCOC(=O)N1CCN(C(=O)Cc2c(C)nc(C)[nH]c2=O)CC1 | -2.986
CC(NC(=O)N1CCNC(=O)CC1)c1ccc(OC(F)F)cc1 (centres unmarked) | -26.09
CN(C)CCNC(=O)c1cc2n(n1)CCN(C(=O)c1ccco1)C2 | -8.24
Cc1ccc(CN(C)Cc2cc(C3CC3)[nH]n2)c(O)n1 | -2.626
CCCc1ccc(N2CCN(Cc3nc4ccccc4n3C)CC2)cc1 | -0.4475
O=c1cc2c(nn1CN1CCSCC1)CCC2 | -6.169
O=S(=O)(c1ccc(F)c(F)c1)N1CCCC(c2nccs2)C1 (centres unmarked) | -0.9721
[H][C@]12CCN(C(=O)c3cccc(F)c3)C[C@@]1([H])OCCN(c1ncccn1)C2 | 14.96
CN(C)C(=O)CCC[S+]([O-])Cc1ccc(F)c(F)c1 (centres unmarked) | -7.029
CCNC(c1ccc(C(C)C)cc1)c1cccnc1 (centres unmarked) | 24.71

Repeated from the top, 7 entries:

* CC(=O)NCC1CN(c2ccc3c(Cl)ccnc3c2F)CCO1 (centres unmarked) | 21.45%
* CNC(=O)CN1CCOCC12CCN(C(=O)c1ccccc1)CC2.O=C(O)C(F)(F)F | -12.06%
* CS(=O)(=O)C1CCN(S(=O)(=O)Cc2cccc(F)c2)CC1 | 1.516%
* Cc1nc(COCc2cnc3n2CCN(C)C3C)cs1.O=C(O)C(F)(F)F (centres unmarked) | 10.97%
* Cc1cccc(CN2CCC3(CCCN(C(=O)CN(C)C)C3)C2=O)n1 (centres unmarked) | 9.226%
* O=C(c1ccc(=O)[nH]c1)N1CCC(Oc2cccc(C(F)(F)F)c2)CC1 | 12.85%
* O=C1CCC(=O)N1CCn1nnc(-c2cccc(Cl)c2)n1 | -7.781%